The supplement of paper PMC6289059
The list shows a part of the results. Repeats are few or missing, and single values can be far off.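 The assay uses human stem cell-derived hepatocyte-like cells whose DGUOK gene was disrupted by CRISPR, modeling liver mtDNA depletion syndrome. ATP signals were scored within each plate, and any drug with a score of at least 3 was called a primary hit.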 Non-standard residues stand in square brackets, D forms with d. Residues, ends and D or L forms follow the SMILES beside them. pGlu = O=C1CC[C@@H](C(=O)O)N1; Thz = O=C(O)[C@@H]1CSCN1

These compounds were tested on DGUOK Δ14/Δ5 iPSC-derived hepatocyte-like cells (SV20) (assay: ATP level (CellTiter-Glo luminescence) Z score relative to plate distribution, under 2-DG glycolysis block; higher = more cellular ATP (rescue of mitochondrial ATP production)). Details: 5 µM; treatment time: day 15 to day 20 of differentiation (5 days); 2-deoxy-D-glucose: 20 mM for 24 h before assay.

SMILES | ATP level
CCCOc1ccc2[nH]c(NC(=O)OC)nc2c1 | inactive: -4.11
Cc1cc2nc3c(=O)[nH]c(=O)nc-3n(C[C@H](O)[C@H](O)[C@H](O)CO)c2cc1C | inactive: -0.32
CC[C@H](C)[C@H]1O[C@]2(C=C[C@@H]1C)C[C@@H]1C[C@@H](C/C=C(\C)[C@@H](O[C@H]3C[C@H](OC)[C@@H](O[C@H]4C[C@H](OC)[C@@H](O)[C@H](C)O4)[C@H](C)O3)[C@@H](C)/C=C/C=C3\CO[C@@H]4[C@H](OC)C(C)=C[C@@H](C(=O)O1)[C@]34O)O2 | inactive: -18.1
CN(C)CCOC(c1ccccc1)c1ccccc1.Cn1c(=O)c2[nH]c(Cl)nc2n(C)c1=O | inactive: -2.78
Clc1ccc2c(c1)CCc1cccnc1C2=C1CCNCC1 | inactive: -2.77
O=C1NCC2(CCN(CCc3ccccc3)CC2)O1 | inactive: -6.04
COc1cc(C)c(C(=O)Oc2cc(C)c(C(=O)O)c(O)c2C)c(OC)c1C | active: 3.28
O=c1[nH]cnc2nc[nH]c12 | inactive: 2.93
CCOc1nc2cccc(C(=O)O)c2n1Cc1ccc(-c2ccccc2-c2nnn[nH]2)cc1 | inactive: 1.62
C[C@@](Cc1ccc(O)c(O)c1)(NN)C(=O)O | inactive: 2.86
C[N+](C)(CCOc1ccccc1)Cc1ccccc1.O=C(O)c1cc2ccccc2cc1[O-] | inactive: 1.81
Nc1ncnc2c1ncn2[C@@H]1O[C@H](CO)[C@@H](O)[C@@H]1O | inactive: -0.0922
CCCCC(CC)COC(=O)CC(C(=O)OCC(CC)CCCC)S(=O)(=O)O (stereo unspecified) | inactive: -0.676
C[C@H]1C[C@H]2[C@@H]3CCC4=CC(=O)C=C[C@]4(C)[C@@]3(F)[C@@H](O)C[C@]2(C)[C@@]1(O)C(=O)COP(=O)(O)O | inactive: 1.76
CCC1(c2ccccc2)C(=O)NCNC1=O | inactive: -0.106
COc1cc(-c2ccc(/N=N/c3ccc4c(S(=O)(=O)O)cc(S(=O)(=O)O)c(N)c4c3O)c(OC)c2)ccc1/N=N/c1ccc2c(S(=O)(=O)O)cc(S(=O)(=O)O)c(N)c2c1O | inactive: -0.611
CN(C)CCC(c1ccc(Br)cc1)c1ccccn1 (stereo unspecified) | inactive: -3.29
Oc1c(Cl)cc(Cl)c2cccnc12 | inactive: -5.19
c1ccc(-c2ccc(C(c3ccccc3)n3ccnc3)cc2)cc1 (stereo unspecified) | inactive: -1.56
O=C1CC[C@@H](C(=O)N2CSC[C@H]2C(=O)O)N1 ([pGlu]-[Thz]-OH) | inactive: 0.0345
CC(C)NCC(O)COc1ccc(CC(N)=O)cc1 (stereo unspecified) | inactive: 0.283

SMILES | ATP level
C[C@H]1O[C@H](O[C@H]2[C@H](O)[C@@H](O)[C@@H](O[C@@H]([C@H](O)[C@@H](O)C=O)[C@H](O)CO)O[C@@H]2CO)[C@H](O)[C@@H](O)[C@@H]1N[C@H]1C=C(CO)[C@@H](O)[C@H](O)[C@H]1O | inactive: 0.72
NC(Cn1ccc(=O)c(O)c1)C(=O)O (stereo unspecified) | inactive: -1
CN1CCN(CC(=O)N2c3ccccc3C(=O)Nc3cccnc32)CC1 | inactive: 0.603
CC(=O)N(CC(O)CO)c1c(I)c(C(=O)NCCO)c(I)c(C(=O)NCC(O)CO)c1I (stereo unspecified) | inactive: 2
COc1ccccc1-c1cc(=O)c2c(OC)cccc2o1 | inactive: -1.64
COC(=O)Nc1nc2cc(Sc3ccccc3)ccc2[nH]1 | inactive: -5.85
Cn1c(=O)c2c(ncn2CC2OCCO2)n(C)c1=O | inactive: 0.298
CCCCCCCC(=O)OCC(COC(=O)CCCCCCC)OC(=O)CCCCCCC | inactive: -0.787
O=C(O)C1=C(CSc2nnnn2CS(=O)(=O)O)CS[C@@H]2[C@H](NC(=O)[C@H](O)c3ccccc3)C(=O)N12 | inactive: 0.91
CC(C)CC(NC(=O)[C@H](C)N)C(=O)O (mixture of isomers) | inactive: -0.944
CCN(CC)CCNC(=O)c1ccc(N)cc1 | inactive: 1.33
NC[C@H](O)c1ccc(O)c(O)c1 | inactive: 1.4
O=C(Oc1cc(O)cc2c1C[C@@H](OC(=O)c1cc(O)c(O)c(O)c1)[C@@H](c1cc(O)c(O)c(O)c1)O2)c1cc(O)c(O)c(O)c1 | inactive: 1.94
CC(=O)c1cc2ccccc2oc1=O | inactive: -1.96
CCCCCCOc1ccccc1C(N)=O | inactive: -0.37
CC[C@H]1OC(=O)[C@H](C)[C@@H](O[C@H]2C[C@@](C)(OC)[C@@H](O)[C@H](C)O2)[C@H](C)[C@@H](O[C@@H]2O[C@H](C)C[C@H](N(C)C)[C@H]2O)[C@](C)(O)C[C@@H](C)CN(C)[C@H](C)[C@@H](O)[C@]1(C)O | inactive: 1.51
CN[C@H]1CC[C@@H](c2ccc(Cl)c(Cl)c2)c2ccccc21 | inactive: -0.953
Nc1ccc(S(=O)(=O)Nc2nccs2)cc1 | inactive: 0.501
CC(C)[N+]1(C)[C@@H]2CC[C@H]1C[C@@H](OC(=O)C(CO)c1ccccc1)C2 (stereo partly specified) | inactive: 0.322
Cc1ccc(-c2cc(C(F)(F)F)nn2-c2ccc(S(N)(=O)=O)cc2)cc1 | active: 3.68
O=C1c2ccccc2C(=O)c2c(O)c(O)cc(O)c21 | inactive: 0.196

SMILES | ATP level
C[C@]12CC[C@@H]3c4ccc(O)cc4C[C@@H](CCCCCCCCC[S+]([O-])CCCC(F)(F)C(F)(F)F)[C@H]3[C@@H]1CC[C@@H]2O (stereo partly specified) | inactive: -0.717
O=C(O)[C@@H]1[C@H]2C[C@H]3c4[nH]c5ccccc5c4CCN3C[C@@H]2CC[C@@H]1O | inactive: 0.126
O=C(NCCCN1CCOCC1)c1ccc(Cl)cc1 | inactive: 0.0487
COc1cc(CNC(=O)CCCC/C=C/C(C)C)ccc1O | inactive: -0.426
COC(=O)c1c(OC)cc2c(c1C)Oc1c(Cl)c(O)c(Cl)c(C)c1C(=O)O2 | inactive: -8
CO/N=C(\C(=O)N[C@@H]1C(=O)N2C(C(=O)O)=C(COC(C)=O)CS[C@H]12)c1csc(N)n1 | inactive: -11.3
C=C[C@](C)(O)CC[C@@H]1[C@@]2(C)CCCC(C)(C)[C@@H]2CC[C@@]1(C)O | inactive: -5.8
O=C(/C=C/c1ccc(O)c(O)c1)O[C@H](Cc1ccc(O)c(O)c1)C(=O)O | inactive: -2.11
COC(=O)[C@H](Cc1ccccc1)NC(=O)[C@@H](N)CC(=O)O (H-Asp-Phe-OMe) | inactive: 1.26
COc1cc(O)c2c(=O)cc(C)oc2c1CC=C(C)C | inactive: 1.22
OC[C@@H](O)[C@@H](O[C@@H]1O[C@H](CO)[C@@H](O)[C@H](O)[C@H]1O)[C@H](O)[C@@H](O)CO | inactive: 1.16
C[N+](C)(C)CC(O)CC(=O)[O-] (stereo unspecified) | inactive: 0.953
CCCCOc1cc(C(=O)OCCN(CC)CC)ccc1N | inactive: -1.71
CC(=O)Nc1nnc(S(N)(=O)=O)s1 | inactive: -0.289
CC(=O)O[C@]1(C)CC[C@@]23C[C@H]1C(C)(C)[C@@H]2CC[C@H]3C | inactive: -4.91
CC(=O)Nc1c(I)cc(I)c(C(=O)O)c1I | inactive: -0.177
Cc1cc2cc3c(C)cc(=O)oc3c(C)c2o1 | inactive: -2.19
CC(C)Oc1ccc2c(=O)c(-c3ccccc3)coc2c1 | inactive: 1.31
COC1=CC(=O)C(O)=C/C1=C\C=C\c1ccccc1 | inactive: 0.0483
O=C(CCCl)NCCc1ccccc1 | inactive: 1.24
CCCOc1ccccc1-c1nc2[nH]nnc2c(=O)[nH]1 | inactive: 1.15

5 records drawn at random from those above:
SMILES | ATP level
C[C@@](Cc1ccc(O)c(O)c1)(NN)C(=O)O | inactive: 2.86
COC1=CC(=O)C(O)=C/C1=C\C=C\c1ccccc1 | inactive: 0.0483
COc1cc(CNC(=O)CCCC/C=C/C(C)C)ccc1O | inactive: -0.426
C[C@H]1O[C@H](O[C@H]2[C@H](O)[C@@H](O)[C@@H](O[C@@H]([C@H](O)[C@@H](O)C=O)[C@H](O)CO)O[C@@H]2CO)[C@H](O)[C@@H](O)[C@@H]1N[C@H]1C=C(CO)[C@@H](O)[C@H](O)[C@H]1O | inactive: 0.72
O=C(CCCl)NCCc1ccccc1 | inactive: 1.24

(more compounds)

SMILES | ATP level
CCN(Cc1cccc(S(=O)(=O)O)c1)c1ccc(C(=C2C=CC(=[N+](CC)Cc3cccc(S(=O)(=O)O)c3)C=C2)c2ccc(O)cc2S(=O)(=O)[O-])cc1 | inactive: -0.952
CCCCCCNC(=O)n1cc(F)c(=O)[nH]c1=O | inactive: -0.837
COc1ccc(Cl)cc1C(=O)NCCc1ccc(S(=O)(=O)NC(=O)NC2CCCCC2)cc1 | inactive: 1.93
CC#C[C@]1(O)CC[C@H]2[C@@H]3CCC4=CC(=O)CCC4=C3[C@@H](c3ccc(N(C)C)cc3)C[C@@]21C | inactive: -1.34
COc1cc(O)c2c(=O)c(OC)c(-c3ccc(OC)c(OC)c3)oc2c1 | inactive: 0.063
O=c1cc(-c2ccccc2)oc2ccccc12 | inactive: -0.619
O=C(O)C1=CC(=C(c2ccc(O)c(C(=O)O)c2)c2ccc(O)c(C(=O)O)c2)C=CC1=O | inactive: 1.64
C[C@@H]1C/C=C/C=C/C=C/C=C/[C@H](O[C@@H]2O[C@H](C)[C@@H](O)[C@H](N)[C@@H]2O)C[C@@H]2O[C@](O)(C[C@@H](O)C[C@H]3O[C@@H]3/C=C/C(=O)O1)C[C@H](O)[C@H]2C(=O)O | inactive: 2.25
NC(Cc1ccc(F)cc1)C(=O)O (stereo unspecified) | inactive: -2.24
CC(C)[C@H](N)C(=O)OCCOCn1cnc2c(=O)nc(N)[nH]c21 | inactive: -0.461
NCCC(=O)N[C@@H](Cc1c[nH]cn1)C(=O)O | inactive: -0.782
CN(C(=O)CN(CCO)CC(=O)N(C)C(C)(C)Cc1ccccc1)C(C)(C)Cc1ccccc1 | inactive: -4.63
CC1(C)C2CCC1(CS(=O)(=O)O)C(=O)C2=Cc1ccc(C=C2C(=O)C3(CS(=O)(=O)O)CCC2C3(C)C)cc1 | inactive: 2.77
COC(=O)N/N=C/c1c[n+]([O-])c2ccccc2[n+]1[O-] | inactive: -4.15
CC(C)=CCc1c2c(c3occ(-c4ccc(O)c(O)c4)c(=O)c3c1O)C=CC(C)(C)O2 | inactive: 0.879
CCCCCCCC/C=C\CCCCCCCC(=O)O.NCCO | inactive: 2.6
COc1cc(NS(=O)(=O)c2ccc(N)cc2)ncn1 | inactive: 2.89
CC1(C)O[C@@H]2C[C@H]3[C@@H]4C[C@H](F)C5=CC(=O)C=C[C@]5(C)[C@@]4(F)[C@@H](O)C[C@]3(C)[C@]2(C(=O)CO)O1 | inactive: 2.57
